In this test the target is human proinsulin (human (endogenous in human islets)). In words: affinity purification with mass spectrometry.

These are yes or no findings as the source states them, for the method shown. Binding seen in cells or lysates may run through a third protein. A yes stands for co-enrichment or nearness to the bait. Other partners may have been found. No binding means not detected with the bait.

B1: QSOX1, human islets (enzyme, UniProt O00391 30-747)
chain: APRSALYSPSDPLTLLQADTVRGAVLGSRSAWAVEFFASWCGHCIAFAPTWKALAEDVKAWRPALYLAALDCAEETNSAVCRDFNIPGFPTVRFFKAFTKNGSGAVFPVAGADVQTLRERLIDALESHHDTWPPACPPLEPAKLEEIDGFFARNNEEYLALIFEKGGSYLGREVALDLSQHKGVAVRRVLNTEANVVRKFGVTDFPSCYLLFRNGSVSRVPVLMESRSFYTAYLQRLSGLTREAAQTTVAPTTANKIAPTVWKLADRSKIYMADLESALHYILRIEVGRFPVLEGQRLVALKKFVAVLAKYFPGRPLVQNFLHSVNEWLKRQKRNKIPYSFFKTALDDRKEGAVLAKKVNWIGCQGSEPHFRGFPCSLWVLFHFLTVQAARQNVDHSQEAAKAKEVLPAIRGYVHYFFGCRDCASHFEQMAAASMHRVGSPNAAVLWLWSSHNRVNARLAGAPSEDPQFPKVQWPPRELCSACHNERLDVPVWDVEATLNFLKAHFSPSNIILDFPAAGSAARRDVQNVAAAPELAMGALELESRNSTLDPGKPEMMKSPTNTTPHVPAEGPEASRPPKLHPGLRAAPGQEPPEHMAELQRNEQEQPLGQWHLSKRDTGAALLAESRAEKNRLWGPLEVRRVGRSSKQLVDIPEGQLEARAGRGRGQWLQVLGGGFSYLDISLCVGLYSLSFMGLLAMYTYFQAKIRALKGHAGHPAA
For B1, the binding entry is “binds”.

B2: ERGIC1 (protein, UniProt Q969X5 1-290)
chain: MPFDFRRFDIYRKVPKDLTQPTYTGAIISICCCLFILFLFLSELTGFITTEVVNELYVDDPDKDSGGKIDVSLNISLPNLHCELVGLDIQDEMGRHEVGHIDNSMKIPLNNGAGCRFEGQFSINKVPGNFHVSTHSATAQPQNPDMTHVIHKLSFGDTLQVQNIHGAFNALGGADRLTSNPLASHDYILKIVPTVYEDKSGKQRYSYQYTVANKEYVAYSHTGRIIPAIWFRYDLSPITVKYTERRQPLYRFITTICAIIGGTFTVAGILDSCIFTASEAWKKIQLGKMH
Consider B2, for which the binding entry is “binds”.

B3: TMEM24 (protein, UniProt O14523 1-706)
chain: MDPGWGQRDVGWAALLILFAASLLTVFAWLLQYARGLWLARARGDRGPGPALAGEPAGSLRELGVWRSLLRLRATRAGAAEEPGVRGLLASLFAFKSFRENWQRAWVRALNEQACRNGSSIQIAFEEVPQLPPRASISHVTCVDQSEHTMVLRCQLSAEEVRFPVSVTQQSPAAVSMETYHVTLTLPPTQLEVNLEEIPGEGLLISWAFTDRPDLSLTVLPKLQARERGEEQVELSTIEELIKDAIVSTQPAMMVNLRACSAPGGLVPSEKPPMMPQAQPAIPRPNRLFLRQLRASHLGNELEGTEELCCVAELDNPMQQKWTKPARAGSEVEWTEDLALDLGPQSRELTLKVLRSSSCGDTELLGQATLPVGSPSRPLSRRQLCPLTPGPGKALGPAATMAVELHYEEGSPRNLGTPTSSTPRPSITPTKKIELDRTIMPDGTIVTTVTTVQSRPRIDGKLDSPSRSPSKVEVTEKTTTVLSESSGPSNTSHSSSRDSHLSNGLDPVAETAIRQLTEPSGRVAKKTPTKRSTLIISGVSKVPIAQDELALSLGYAASLEASVQDDAGTSGGPSSPPSDPPAMSPGPLDALSSPTSVQEADETTRSDISERPSVDDIESETGSTGALETRSLKDHKVSFLRSGTKLIFRRRPRQKEAGLSQSHDDLSNATATPSVRKKAGSFSRRLIKRFSFKSKPKANGNPSPQL
Take B3: the binding entry is recorded as “no binding”.

B4: ERDJ5 (protein, UniProt Q8IXB1 33-793)
chain: DQDFYSLLGVSKTASSREIRQAFKKLALKLHPDKNPNNPNAHGDFLKINRAYEVLKDEDLRKKYDKYGEKGLEDNQGGQYESWNYYRYDFGIYDDDPEIITLERREFDAAVNSGELWFVNFYSPGCSHCHDLAPTWRDFAKEVDGLLRIGAVNCGDDRMLCRMKGVNSYPSLFIFRSGMAPVKYHGDRSKESLVSFAMQHVRSTVTELWTGNFVNSIQTAFAAGIGWLITFCSKGGDCLTSQTRLRLSGMLDGLVNVGWMDCATQDNLCKSLDITTSTTAYFPPGATLNNKEKNSILFLNSLDAKEIYLEVIHNLPDFELLSANTLEDRLAHHRWLLFFHFGKNENSNDPELKKLKTLLKNDHIQVGRFDCSSAPDICSNLYVFQPSLAVFKGQGTKEYEIHHGKKILYDILAFAKESVNSHVTTLGPQNFPANDKEPWLVDFFAPWCPPCRALLPELRRASNLLYGQLKFGTLDCTVHEGLCNMYNIQAYPTTVVFNQSNIHEYEGHHSAEQILEFIEDLMNPSVVSLTPTTFNELVTQRKHNEVWMVDFYSPWCHPCQVLMPEWKRMARTLTGLINVGSIDCQQYHSFCAQENVQRYPEIRFFPPKSNKAYHYHSYNGWNRDAYSLRIWGLGFLPQVSTDLTPQTFSEKVLQGKNHWVIDFYAPWCGPCQNFAPEFELLARMIKGKVKAGKVDCQAYAQTCQKAGIRAYPTVKFYFYERAKRNFQEEQINTRDAKAIAALISEKLETLRNQGKRNKDEL
Regarding B4, the binding result is reported as “binds”.

B5: ERP44 (protein, UniProt Q9BS26 30-406)
chain: EITSLDTENIDEILNNADVALVNFYADWCRFSQMLHPIFEEASDVIKEEFPNENQVVFARVDCDQHSDIAQRYRISKYPTLKLFRNGMMMKREYRGQRSVKALADYIRQQKSDPIQEIRDLAEITTLDRSKRNIIGYFEQKDSDNYRVFERVANILHDDCAFLSAFGDVSKPERYSGDNIIYKPPGHSAPDMVYLGAMTNFDVTYNWIQDKCVPLVREITFENGEELTEEGLPFLILFHMKEDTESLEIFQNEVARQLISEKGTINFLHADCDKFRHPLLHIQKTPADCPVIAIDSFRHMYVFGDFKDVLIPGKLKQFVFDLHSGKLHREFHHGPDPTDTAPGEQAQDVASSPPESSFQKLAPSEYRYTLLRDRDEL
For B5, the binding result was “binds”.

B6: Peroxiredoxin-4 (PRDX4), human islets (enzyme, UniProt Q13162 38-271)
chain: WETEERPRTREEECHFYAGGQVYPGEASRVSVADHSLHLSKAKISKPAPYWEGTAVIDGEFKELKLTDYRGKYLVFFFYPLDFTFVCPTEIIAFGDRLEEFRSINTEVVACSVDSQFTHLAWINTPRRQGGLGPIRIPLLSDLTHQISKDYGVYLEDSGHTLRGLFIIDDKGILRQITLNDLPVGRSVDETLRLVQAFQYTDKHGEVCPAGWKPGSETIIPDPAGKLKYFDKLN
Take B6: the binding result is given as “binds”.

The values are drawn from publication doi:10.1101/699132 (bioRxiv, 2020).
